{"source": "paper PMC3472329", "binders": {"B1": {"name": "Cap34, alpha-subunit of capping protein Cap32/34 from Dictyostelium discoideum (protein, UniProt P13022 1-281)", "chain": "MASNQELVQIATNFLLNAPPCEFMEVVSDVRALLPSESLLNASAGSTFREYNTSQMVSVQTSKGSALITKEGEISNNEYLDPKNKQVITYDHIKQEVTGERSASGEIEQDIEQYRAAFDEEATKYCNEYYPNGVSAVYGTKVSEGIKITVCISTCIYKPNAFYSGRWRSVWTCTFKPGSGNVTSNGKVQVNVHYFEDGNVQLNTVTQKQTTSPSADAQSTAVNAFKAIGKAELNLHTALDNNYSTMGDTTFKALRRALPINRTKINWQKVKNFKIANELNK"}}, "biological_target": "T1, Cap32, beta-subunit of capping protein Cap32/34 from Dictyostelium discoideum (Dictyostelium discoideum) (UniProt P13021)", "T1 sequence": "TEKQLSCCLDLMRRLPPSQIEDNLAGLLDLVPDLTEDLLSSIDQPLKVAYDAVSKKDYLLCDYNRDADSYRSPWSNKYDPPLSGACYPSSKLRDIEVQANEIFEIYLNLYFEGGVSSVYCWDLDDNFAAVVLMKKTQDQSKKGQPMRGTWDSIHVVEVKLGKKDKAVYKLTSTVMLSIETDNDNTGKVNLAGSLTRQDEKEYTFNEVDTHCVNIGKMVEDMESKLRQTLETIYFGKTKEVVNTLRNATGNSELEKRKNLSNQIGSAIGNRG", "assay": "crystal structure; co-expressed and co-purified Cap32/34 heterodimer; hanging-drop vapour diffusion, 100 mM Hepes pH 7.5, 17% (w/v) PEG 8000, 20°C; refined to 2.2 Å, space group P4(1), two molecules in the asymmetric unit; both purified", "note": "These are yes or no findings as the source states them, for the method shown. Some binding calls cover weakened binding; strength is not graded here.", "data": [{"binder": "B1", "values": [{"measurement": "binding", "result": "binds"}]}]}
